No constants are given. Whether binding was seen depends on the method and setting. Binding seen in cells or lysates may run through a third protein. A yes stands for co-enrichment or nearness to the bait. Other partners may have been found.

In assay [1] the target is T1, Stau1 (Staufen1) (Xenopus laevis (endogenous in oocytes)) (UniProt Q6GM35).
T1 sequence: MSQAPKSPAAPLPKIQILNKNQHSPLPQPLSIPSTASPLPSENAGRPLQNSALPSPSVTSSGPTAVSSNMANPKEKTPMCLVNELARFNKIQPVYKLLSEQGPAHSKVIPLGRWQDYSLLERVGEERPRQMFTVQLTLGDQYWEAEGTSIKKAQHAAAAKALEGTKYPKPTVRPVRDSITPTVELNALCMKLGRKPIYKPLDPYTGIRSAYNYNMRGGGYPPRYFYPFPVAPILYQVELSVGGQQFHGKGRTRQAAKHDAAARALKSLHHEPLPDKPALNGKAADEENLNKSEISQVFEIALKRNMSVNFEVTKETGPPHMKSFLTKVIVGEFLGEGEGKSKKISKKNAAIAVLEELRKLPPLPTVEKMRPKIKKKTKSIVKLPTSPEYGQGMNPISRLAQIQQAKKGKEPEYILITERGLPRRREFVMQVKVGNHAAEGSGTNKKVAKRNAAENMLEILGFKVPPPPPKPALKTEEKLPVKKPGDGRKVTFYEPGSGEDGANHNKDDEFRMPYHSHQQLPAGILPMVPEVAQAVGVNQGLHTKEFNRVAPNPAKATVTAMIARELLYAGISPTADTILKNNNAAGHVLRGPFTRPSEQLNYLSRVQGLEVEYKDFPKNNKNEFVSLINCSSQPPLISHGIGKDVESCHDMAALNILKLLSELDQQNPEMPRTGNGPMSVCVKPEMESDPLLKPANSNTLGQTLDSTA
In words: affinity purification with mass spectrometry.

For assay [2], the target named is T2, hnRNPAB (40LoVE) (Xenopus laevis (endogenous in oocytes)).
T2 sequence: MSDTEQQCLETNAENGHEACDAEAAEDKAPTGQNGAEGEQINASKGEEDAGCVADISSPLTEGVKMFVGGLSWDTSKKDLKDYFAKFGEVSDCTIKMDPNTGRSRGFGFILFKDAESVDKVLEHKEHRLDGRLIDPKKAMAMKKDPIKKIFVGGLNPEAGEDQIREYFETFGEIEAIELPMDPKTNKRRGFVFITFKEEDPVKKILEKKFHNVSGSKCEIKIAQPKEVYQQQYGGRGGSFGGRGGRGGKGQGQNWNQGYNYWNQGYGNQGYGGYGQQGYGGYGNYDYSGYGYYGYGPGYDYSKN
The assay can be described thus: affinity purification with mass spectrometry.

B1: Ddx1 (protein, UniProt A2VD92 1-740)
chain: MAAFSEMGVMPEIAQAVEEMDWLLPTDIQAESIPLILGGGDVLMAAETGSGKTGAFSIPVIQIVYETLKDQQEGKKGKASVKTGSTVLNKWQMNPYDRGSAFAIGSDGLCCQSREIKEWHGCRSTRGVNKGKYYYEVSCHDQGLCRVGWSTLSASLDLGTDKFGFGFGGTGKKSHNKQFDNYGEEFTMHDTIGCYLDIDNSIVKFSKNGKDLGLAFQIPSHMKNQAFFTSCVLKNAELKFNFGEEDFKFPPKDGFVALSKAPDGHVVKSQNTGSAQVSQTKSLPNAPKALIIEPSRELAEQTLNNVKQFKKYVDNPKLRELLIIGGVAAKEQLTILENGVDIVVGTPGRIDDLISTGKLSLSQVRFLVLDEADGLLSQGYSDFINRIYGQIPQITSDGKRLQVIVCSATLHSFDVKKLSEKIMHFPTWVDLKGEDSVPETVHHVVVPVNPKKDKQWEKLAKNHIRTDGVHDKDNTRPGGNSAEVWSEAIKVLKGEYIVRAIKEHKMDQAIIFCRTKLDCDNMEQYFIQQGGGPDKKGHQFSCVCLHSDRKPPERKHNLERFKKCEVRFLICTDVAARGIDIRGVPYVINVTLPDEKQNYVHRIGRVGRAERMGLAISLVASEKEKVWYHVCSSRGKGCYNTRLKEDGGCTIWYNEMQLLSEIEEHLTCTISQVEPDIKVPLDDFDGKVVYGQRRATGGGLYKGHVDILAPTVQELASLEKEAQTSFLHLGYLSNQLFRSF
For B1, the binding result in assay [1] and in assay [2] was “binds” each time.

B2: Stau1 (Staufen1) (protein, UniProt Q6GM35 1-708)
chain: T1 sequence
In the case of B2, the binding entry in assay [2] is “binds”.

B3: Ilf3 (protein, UniProt Q91550 1-897)
chain: MRPMRIFLNDDRHVMAKHSVVYPTQEELEAVQNMVSHTERALKAVSDWIDQQEKDCSGEQEQPMAEETETTEEGKDSEMKTGENPTRTLRGVMRVGLVAKGLLLKGDLDLELVLLCRDKPTISLLKRVADNLVLQFETVSEDKYEVIQNIREALIVVKSTKEPPLTLNIRLTSPLVREEMEKLSAGETLTVSDPPDVLDRHKCLAALASLRHAKWFQARANGLKSCVIVIRVLRDLCTRVPTWEPLRGWPLELLCEKAIGTANRPMGAGEALRRVLECLSSGILMPDGSGLYDPCEKDASDALEHLERQQREDITQSAQHALRLAAFGQLHKVLGMDPLPSKMPKKTKVETPVIDYTVQIPPSTTYAMPPLKRPIEEDGDDKSPSKKKKKIQKKDEKSEPPQVMNALMRLNQLKPGLQYKLISQTGPVHAPVFTMSVEVDDKTFEASGPSKKTAKLHVAVKVLQDMGLPTGMEEKEEGTDESEQKPVVQTPAQPDDSAEVDSAALDQAESAKQQGPILTKHGKNPVMELNEKRRGLKYELISETGGSHDKRFVMEVEVDGVKFQGSGSNKKVAKAYAALSALEKLFPDYTMYTEAPKKKRPPMMPRGGPKFAGKHNQGFGMMYSEVPPPQAMRGRGRGGMNRGRGRGRGGFGGGYMNSGGYGGGYGGNYNYQTSATAGYSQFYSNGGASGNAGGGGAGTGGYSSYYQGDSYSAPTPPKPFVNKKPPPPQQQQQQQPPPQHASNPPKPSYNQGYQGHQGGQQQQQQQQQQQTYNQNQYSNYGPPQKQKGGYNQGAQGAGSGGSYNYSNSYTGGTAPLGTAVERVQEGEAAALTQRQALVTTQAHTPAMVEPAVLRRTKVTRSLITIKVPPDRTTVALQIITSSLREELGVTAGIQNTT
In the case of B3, the binding entry in assay [1] and in assay [2] was “binds” throughout.

B4: Ddx5 (protein, UniProt Q63ZR1 1-608)
chain: MPGFNDRDRGRDRGFGGGPRFGGNRGGTSGKYGNPGERLMKKKWNLDELPKFEKNFYQEHPDVVRRTPQECDQYRRSKEITVRGINCPKPILNFNEASFPANVMEAIKRQNFTEPTPIQGQGWPVALSGLDMVGVAMTGSGKTLSYLLPGIVHINHQPFLQRGDGPILLVLAPTRELAQQVQQVAAEYGRACRLRSTCIYGGAPKGPQIRDLERGVEICIATPGRLIDFLEAGKTNLNRCTYLVLDEADRMLDMGFEPQIRKIVDQIRPDRQTLMWSATWPKEVRQLAEDFLRDYVHINIGALELSANHNILQIVDVCNDGEKDDKLVRLMEEIMSEKENKTIVFVETKRRCDDLTRRLRRDGWPAMGIHGDKSQQERDWVLNEFKHGKSPILIATDVASRGLDVEDVKFVINYDYPNSSEDYIHRIGRTARSSKTGTAYTFFTPGNIKQVNDLISVLREANQAINPKLLQLVEDRGRFRGRGGMNDRRDRFSSGKRGGWDRENYDRGFGGKRDFGNKSQNGFGNKSQNGFGAQNYNGNFNSYGSNVQSGFRAGAQNGTYQNGYSTQQTGYSAPPMQNGMTQQAYTYPTATATAPAVIGYPMPTSYPQ
As to B4, the binding entry in assay [1] and in assay [2] was “binds” throughout.

B5: hnRNPAB (40LoVE) (protein, UniProt A0A7M4CIF6 1-304)
chain: T2 sequence
Take B5: in assay [1], the binding result is “binds”.

Source of the values: publication doi:10.1101/2020.05.08.084814.
